# The list shows a part of the results.
# What was measured:
# Test in all cases: glycan array binding signal (z-score within array); higher = stronger binding
# Settings in all cases: glycan notation: IUPAC condensed, linker removed
# Gal3S(b1-4)Glc = target: Gal3S(b1-4)Glc
# In short: (§1)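 Negative Z-scores can be read as non-binding. The Z-score is calculated within each array and then averaged across arrays of one protein sequence at different concentrations or buffers and across linkers. Arrays, 3228 in all, were curated from the Consortium for Functional Glycomics database and kept only where the protein sequence was available.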
# Gal3S(b1-4)Glc6S = target: Gal3S(b1-4)Glc6S
# In short: as §1
# Gal3S(b1-4)GlcNAc = target: Gal3S(b1-4)GlcNAc
# In short: as §1
# [1] = target: Gal3S(b1-4)[Fuc(a1-3)]Glc6S
# In short: as §1
# [2] = target: Gal3S(b1-4)[Fuc(a1-3)]GlcNAc
# In short: as §1
# [3] = target: Gal3S(b1-4)[Fuc(a1-3)]GlcNAc6S
# In short: as §1
# Gal3S4S(b1-4)GlcNAc = target: Gal3S4S(b1-4)GlcNAc
# In short: as §1
# Gal3S6S(b1-4)GlcNAc = target: Gal3S6S(b1-4)GlcNAc
# In short: as §1
# Gal3S6S(b1-4)GlcNAc6S = target: Gal3S6S(b1-4)GlcNAc6S
# In short: as §1
# Gal4S(b1-4)GlcNAc = target: Gal4S(b1-4)GlcNAc
# In short: as §1
# Gal4S6S(b1-4)GlcNAc = target: Gal4S6S(b1-4)GlcNAc
# In short: as §1
# Gal6P(b1-4)GlcNAc = target: Gal6P(b1-4)GlcNAc
# In short: as §1
# Gal6S(b1-3)GlcNAc = target: Gal6S(b1-3)GlcNAc
# In short: as §1
# Gal6S(b1-3)GlcNAc6S = target: Gal6S(b1-3)GlcNAc6S
# In short: as §1
# Gal6S(b1-4)Glc = target: Gal6S(b1-4)Glc
# In short: as §1
# Gal6S(b1-4)Glc6S = target: Gal6S(b1-4)Glc6S
# In short: as §1
# Gal6S(b1-4)GlcNAc = target: Gal6S(b1-4)GlcNAc
# In short: as §1
# Gal6S(b1-4)GlcNAc6S = target: Gal6S(b1-4)GlcNAc6S
# In short: as §1
# GalNAc(a1-3)Gal = target: GalNAc(a1-3)Gal
# In short: as §1
# GalNAc(a1-3)GalNAc = target: GalNAc(a1-3)GalNAc
# In short: as §1
# [4] = target: GalNAc(a1-3)GalNAc(b1-3)Gal(a1-4)Gal(b1-4)Glc
# In short: as §1
# [5] = target: GalNAc(a1-3)GalNAc(b1-3)Gal(a1-4)Gal(b1-4)GlcNAc
# In short: as §1
# GalNAc(b1-3)Gal = target: GalNAc(b1-3)Gal
# In short: as §1
# [6] = target: GalNAc(b1-3)Gal(a1-4)Gal(b1-4)GlcNAc
# In short: as §1
# [7] = target: GalNAc(b1-3)Gal(a1-4)Gal(b1-4)GlcNAc(b1-3)Gal(b1-4)Glc
# In short: as §1
# [8] = target: GalNAc(b1-3)Gal(a1-6)Gal(b1-4)Glc
# In short: as §1
# GalNAc(b1-3)GalNAc = target: GalNAc(b1-3)GalNAc
# In short: as §1
# GalNAc(b1-3)GlcNAc = target: GalNAc(b1-3)GlcNAc
# In short: as §1
# GalNAc(b1-4)Gal(b1-4)Glc = target: GalNAc(b1-4)Gal(b1-4)Glc
# In short: as §1
# GalNAc(b1-4)GlcNAc = target: GalNAc(b1-4)GlcNAc
# In short: as §1
# [9] = target: GalNAc(b1-4)GlcNAc(b1-2)Man
# In short: as §1
# [10] = target: GalNAc(b1-4)GlcNAc(b1-2)Man(a1-3)[GalNAc(b1-4)GlcNAc(b1-2)Man(a1-6)]Man(b1-4)GlcNAc(b1-4)GlcNAc
# In short: as §1
# [11] = target: GalNAc(b1-4)GlcNAc(b1-3)GalNAc(b1-4)GlcNAc
# In short: as §1
# GalNAc(b1-4)GlcNAc6S = target: GalNAc(b1-4)GlcNAc6S
# In short: as §1
# GalNAc(b1-6)GalNAc = target: GalNAc(b1-6)GalNAc
# In short: as §1
# GalNAc3S(b1-4)GlcNAc = target: GalNAc3S(b1-4)GlcNAc
# In short: as §1
# GalNAc3S(b1-4)GlcNAc3S = target: GalNAc3S(b1-4)GlcNAc3S
# In short: as §1
binder,measurement,setting,value
RobpsCRA (Robinia pseudoacacia) (protein) IKGGYWYSGSGLAVSDINPSHFTHLFCAFADLDPNTNKLTISSSNAAAFSTFTQTVRAKNPSVKTLLSIGGGGGRALAAVFANMASQASRRKSFIDSSIQLARRNNFHGLDLDWEYPSSDIDKTNFASLIREWRAAVATESSTSGTPALLLSAAVGGSDQITPLKYYPGEAIANNLDWVNVMTYDLYTSDSYPTLTQPPAPLFYPRGIFSADEGITKWIQSGVPESKLALGLPFYGFKWRLSDPNNHGLFAPATQGLGAVKYKDIVNTGGQVEFDSTYVTNYCFKGTDWYGYDDTQSISAKVAYAKQRGLFGYFAWHIEQDSNWALS,glycan array binding signal (z-score),Gal3S(b1-4)Glc,0.23
same,glycan array binding signal (z-score),Gal3S(b1-4)Glc6S,0.297
same,glycan array binding signal (z-score),Gal3S(b1-4)GlcNAc,0.05
same,glycan array binding signal (z-score),[1],1.65
same,glycan array binding signal (z-score),[2],0.577
same,glycan array binding signal (z-score),[3],-0.084
same,glycan array binding signal (z-score),Gal3S4S(b1-4)GlcNAc,0.05
same,glycan array binding signal (z-score),Gal3S6S(b1-4)GlcNAc,-0.453
same,glycan array binding signal (z-score),Gal3S6S(b1-4)GlcNAc6S,0.612
same,glycan array binding signal (z-score),Gal4S(b1-4)GlcNAc,0.139
same,glycan array binding signal (z-score),Gal4S6S(b1-4)GlcNAc,-0.367
same,glycan array binding signal (z-score),Gal6P(b1-4)GlcNAc,-0.444
same,glycan array binding signal (z-score),Gal6S(b1-3)GlcNAc,-0.277
same,glycan array binding signal (z-score),Gal6S(b1-3)GlcNAc6S,0.549
same,glycan array binding signal (z-score),Gal6S(b1-4)Glc,0.021
same,glycan array binding signal (z-score),Gal6S(b1-4)Glc6S,-0.491
same,glycan array binding signal (z-score),Gal6S(b1-4)GlcNAc,-0.522
same,glycan array binding signal (z-score),Gal6S(b1-4)GlcNAc6S,0.018
same,glycan array binding signal (z-score),GalNAc(a1-3)Gal,-0.414
same,glycan array binding signal (z-score),GalNAc(a1-3)GalNAc,-0.106
same,glycan array binding signal (z-score),[4],-0.305
same,glycan array binding signal (z-score),[5],-0.705
same,glycan array binding signal (z-score),GalNAc(b1-3)Gal,-0.225
same,glycan array binding signal (z-score),[6],0.969
same,glycan array binding signal (z-score),[7],-0.794
same,glycan array binding signal (z-score),[8],-0.698
same,glycan array binding signal (z-score),GalNAc(b1-3)GalNAc,-0.308
same,glycan array binding signal (z-score),GalNAc(b1-3)GlcNAc,0.418
same,glycan array binding signal (z-score),GalNAc(b1-4)Gal(b1-4)Glc,0.371
same,glycan array binding signal (z-score),GalNAc(b1-4)GlcNAc,0.395
same,glycan array binding signal (z-score),[9],-0.38
same,glycan array binding signal (z-score),[10],-0.025
same,glycan array binding signal (z-score),[11],0.089
same,glycan array binding signal (z-score),GalNAc(b1-4)GlcNAc6S,0.627
same,glycan array binding signal (z-score),GalNAc(b1-6)GalNAc,-0.149
same,glycan array binding signal (z-score),GalNAc3S(b1-4)GlcNAc,-0.237
same,glycan array binding signal (z-score),GalNAc3S(b1-4)GlcNAc3S,-0.008

# Some of the entries so far, bar-delimited.
binder | measurement | setting | value
RobpsCRA (Robinia pseudoacacia) (protein) IKGGYWYSGSGLAVSDINPSHFTHLFCAFADLDPNTNKLTISSSNAAAFSTFTQTVRAKNPSVKTLLSIGGGGGRALAAVFANMASQASRRKSFIDSSIQLARRNNFHGLDLDWEYPSSDIDKTNFASLIREWRAAVATESSTSGTPALLLSAAVGGSDQITPLKYYPGEAIANNLDWVNVMTYDLYTSDSYPTLTQPPAPLFYPRGIFSADEGITKWIQSGVPESKLALGLPFYGFKWRLSDPNNHGLFAPATQGLGAVKYKDIVNTGGQVEFDSTYVTNYCFKGTDWYGYDDTQSISAKVAYAKQRGLFGYFAWHIEQDSNWALS | glycan array binding signal (z-score) | Gal3S(b1-4)Glc | 0.23
same | glycan array binding signal (z-score) | Gal3S(b1-4)Glc6S | 0.297
